Measured values published in paper PMC2907397.
Results are given in words; binding and its absence hold for the method and conditions named. For some assays here: In cells and extracts the contact can be indirect. Some binding calls cover weakened binding; strength is not graded here. For some assays here: Tags and fused reporters may be left off the sequences shown.

Columns and labels:
[1] = biological target: T1, myc-CIB1 (6xmyc-hCIB1) (human) (UniProt Q99828); assay: co-IP; as the co-IP of transfected HEK-293T cells but without MG132; data not shown
T1 sequence: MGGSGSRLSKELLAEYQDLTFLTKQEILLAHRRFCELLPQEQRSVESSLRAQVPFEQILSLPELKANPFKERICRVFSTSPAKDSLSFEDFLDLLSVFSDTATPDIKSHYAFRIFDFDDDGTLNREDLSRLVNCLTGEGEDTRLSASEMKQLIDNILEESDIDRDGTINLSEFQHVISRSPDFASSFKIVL

[2] = biological target: T1, myc-CIB1 (6xmyc-hCIB1) (human); assay: co-IP; HEK-293T co-transfected with pEGFP-N3-AID or pEGFP-N3 and p6xmyc-CIB1; 50 µM MG132 for 5 hours before harvest; lysis buffer 25 mM HEPES pH 7.4, 150 mM NaCl, 1% NP40; α-myc mAb and Protein G Sepharose at 4°C; blot with α-GFP polyclonal
[3] = biological target: T2, human AID residues 56–198 (yeast two-hybrid bait) (human) (UniProt Q9GZX7); assay: two-hybrid; large scale Gal4-based yeast two-hybrid screen; bait plasmid with human AID residues 56-198 against a tongue and tonsil cDNA library; hits identified by DNA sequencing
T2 sequence: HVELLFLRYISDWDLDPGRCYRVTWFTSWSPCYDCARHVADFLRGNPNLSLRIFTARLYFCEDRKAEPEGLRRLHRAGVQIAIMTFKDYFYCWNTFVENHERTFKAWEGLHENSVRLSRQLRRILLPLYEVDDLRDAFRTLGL

AID-EGFP (human) = AID-EGFP (human) (UniProt Q9GZX7); assay: co-IP; reciprocal: HEK-293T co-transfected with pEGFP-N3-AID or pEGFP-N3 and 6xmyc-hCIB1; lysates incubated with 20 µg RNase A, DNase I or BSA at 37°C for 20 minutes; α-GFP mAb (JL8) and Protein G Sepharose at 4°C; blot with α-myc
AID-STZ (human) = AID-STZ (human) (UniProt Q9GZX7); assay: pull-down; HEK-293T transfected with pAID-STZ or pEGFP-STZ, expressed for 48 hours; STZ proteins precipitated with IgG Sepharose, removed from the beads by TEV protease cleavage; blot with α-CIB1 and α-Strep

AID-EGFP (from UniProt Q9GZX7 1-198)
binding [1]: binds
binding [2]: binds

B1: residues 1–191 of the calcium and integrin binding protein 1 (CIB1) (yeast two-hybrid prey) (protein, UniProt Q99828 1-191)
chain: MGGSGSRLSKELLAEYQDLTFLTKQEILLAHRRFCELLPQEQRSVESSLRAQVPFEQILSLPELKANPFKERICRVFSTSPAKDSLSFEDFLDLLSVFSDTATPDIKSHYAFRIFDFDDDGTLNREDLSRLVNCLTGEGEDTRLSASEMKQLIDNILEESDIDRDGTINLSEFQHVISRSPDFASSFKIVL
binding [3]: binds

B2: myc-CIB1 (6xmyc-hCIB1) (protein, UniProt Q99828 1-191)
chain: MGGSGSRLSKELLAEYQDLTFLTKQEILLAHRRFCELLPQEQRSVESSLRAQVPFEQILSLPELKANPFKERICRVFSTSPAKDSLSFEDFLDLLSVFSDTATPDIKSHYAFRIFDFDDDGTLNREDLSRLVNCLTGEGEDTRLSASEMKQLIDNILEESDIDRDGTINLSEFQHVISRSPDFASSFKIVL
binding (AID-EGFP (human)): binds

B3: endogenous CIB1 (protein, UniProt Q99828 1-191)
chain: MGGSGSRLSKELLAEYQDLTFLTKQEILLAHRRFCELLPQEQRSVESSLRAQVPFEQILSLPELKANPFKERICRVFSTSPAKDSLSFEDFLDLLSVFSDTATPDIKSHYAFRIFDFDDDGTLNREDLSRLVNCLTGEGEDTRLSASEMKQLIDNILEESDIDRDGTINLSEFQHVISRSPDFASSFKIVL
binding (AID-STZ (human)): binds
